In article PMC6179577:

Target: Claudin-7 (dog (endogenous in MDCK))
Test: co-IP; Claudin-7 immunoprecipitated with rabbit anti-Claudin-7 antibody and Protein A Sepharose from MDCK cell line lysates (10 mM Tris-HCl pH 7, 140 mM NaCl, 300 mM sucrose, 0.5% Triton-X-100), 16 hours at 4°C; immunoblotted for EpCAM, YFP and Claudin-7

Row | Binder | binding
1 | EpCAM-YFP (protein, UniProt P16422 24-314) QEECVCENYKLAVNCFVNNNRQCQCTSVGAQNTVICSKLAAKCLVMKAEMNGSKLGRRAKPEGALQNNDGLYDPDCDESGLFKAKQCNGTSMCWCVNTAGVRRTDKDTEITCSERVRTYWIIIELKHKAREKPYDSKSLRTALQKEITTRYQLDPKFITSILYENNVITIDLVQNSSQKTQNDVDIADVAYYFEKDVKGESLFHSKKMDLTVNGEQLDLDPGQTLIYYVDEKAPEFSMQGLKAGVIAVIVVVVIAVVAGIVVLVISRKKRMAKYEKAEIKEMGEMHRELNA | binds
2 | EpCAM-YFP mutated in matriptase cleavage and dimerization domain (protein, UniProt P16422 24-314) QEECVCENYKLAVNCFVNNNRQCQCTSVGAQNTVICSKLAAKCLVMKAEMNGSKLGEEAKPEGALQNNDGLYDPDCDESGLFKAKQCNGTSMCWCVNTAGVRRTDKDTEITCSERVRTYWIIIELKHKAREKPYDSKSLRTALQKEITTRYQLDPKFITSILYENNVITIDLVQNSSQKTQNDVDIADVAYYFEKDVKGESLFHSKKMDLTVNGEQLDLDPGQTLIYYVDEKAPEFSMQGLKAGVIAVIVVVVIAVVAGIVVLVISRKKRMAKYEKAEIKEMGEMHRELNA | binds
3 | EpCAM-YFP defective for Claudin-7 binding (protein, UniProt P16422 24-314) QEECVCENYKLAVNCFVNNNRQCQCTSVGAQNTVICSKLAAKCLVMKAEMNGSKLGRRAKPEGALQNNDGLYDPDCDESGLFKAKQCNGTSMCWCVNTAGVRRTDKDTEITCSERVRTYWIIIELKHKAREKPYDSKSLRTALQKEITTRYQLDPKFITSILYENNVITIDLVQNSSQKTQNDVDIADVAYYFEKDVKGESLFHSKKMDLTVNGEQLDLDPGQTLIYYVDEKAPEFSMQGLKAGVIAVIVVVVIIVVAIIVVLVISRKKRMAKYEKAEIKEMGEMHRELNA | no binding

Results are given in words; binding and its absence hold for the method and conditions named. In cells and extracts the contact can be indirect. Binding calls can cover weak binding; strength is not graded here. Sequences can lack the tags named with a protein.
